This note sets out measurements from paper PMC12539243.

The chains behind the UniProt entries cited, without tags or fusion partners. Residues count along the entry.
UniProt P68400: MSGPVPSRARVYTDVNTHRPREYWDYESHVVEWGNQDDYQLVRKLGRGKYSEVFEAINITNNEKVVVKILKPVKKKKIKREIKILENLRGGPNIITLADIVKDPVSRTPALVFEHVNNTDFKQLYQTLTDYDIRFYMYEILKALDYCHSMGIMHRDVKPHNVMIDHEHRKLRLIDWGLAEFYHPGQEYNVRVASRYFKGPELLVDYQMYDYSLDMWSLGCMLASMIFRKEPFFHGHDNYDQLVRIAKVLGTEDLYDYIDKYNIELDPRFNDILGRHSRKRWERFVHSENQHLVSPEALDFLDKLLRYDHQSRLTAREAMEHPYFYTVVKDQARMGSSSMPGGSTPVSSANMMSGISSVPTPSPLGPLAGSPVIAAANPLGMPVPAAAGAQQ
UniProt O96017: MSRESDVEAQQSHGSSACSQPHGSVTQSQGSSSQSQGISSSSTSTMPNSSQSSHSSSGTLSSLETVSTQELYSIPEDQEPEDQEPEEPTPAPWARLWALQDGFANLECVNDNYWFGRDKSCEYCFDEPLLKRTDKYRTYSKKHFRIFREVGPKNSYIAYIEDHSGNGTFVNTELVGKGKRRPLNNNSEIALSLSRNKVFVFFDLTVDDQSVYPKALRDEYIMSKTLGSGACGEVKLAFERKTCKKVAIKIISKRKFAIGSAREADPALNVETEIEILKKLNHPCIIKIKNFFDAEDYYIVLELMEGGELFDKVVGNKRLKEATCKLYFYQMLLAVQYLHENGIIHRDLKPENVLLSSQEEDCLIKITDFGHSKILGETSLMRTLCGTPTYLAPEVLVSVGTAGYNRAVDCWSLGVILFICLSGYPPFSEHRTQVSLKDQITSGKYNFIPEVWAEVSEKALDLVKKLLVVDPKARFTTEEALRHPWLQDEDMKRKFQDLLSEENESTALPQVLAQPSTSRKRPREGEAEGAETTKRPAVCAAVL
UniProt Q9UNM6: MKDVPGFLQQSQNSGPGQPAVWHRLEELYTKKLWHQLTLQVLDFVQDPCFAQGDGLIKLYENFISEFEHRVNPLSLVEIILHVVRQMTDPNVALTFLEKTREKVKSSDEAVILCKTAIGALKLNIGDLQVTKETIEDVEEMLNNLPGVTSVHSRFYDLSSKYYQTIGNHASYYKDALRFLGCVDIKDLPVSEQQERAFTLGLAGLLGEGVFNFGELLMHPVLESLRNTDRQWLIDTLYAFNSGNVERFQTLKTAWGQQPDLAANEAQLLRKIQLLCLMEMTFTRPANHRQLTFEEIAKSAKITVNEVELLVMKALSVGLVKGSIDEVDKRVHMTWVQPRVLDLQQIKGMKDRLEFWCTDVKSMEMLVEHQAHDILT
UniProt Q8WZA1: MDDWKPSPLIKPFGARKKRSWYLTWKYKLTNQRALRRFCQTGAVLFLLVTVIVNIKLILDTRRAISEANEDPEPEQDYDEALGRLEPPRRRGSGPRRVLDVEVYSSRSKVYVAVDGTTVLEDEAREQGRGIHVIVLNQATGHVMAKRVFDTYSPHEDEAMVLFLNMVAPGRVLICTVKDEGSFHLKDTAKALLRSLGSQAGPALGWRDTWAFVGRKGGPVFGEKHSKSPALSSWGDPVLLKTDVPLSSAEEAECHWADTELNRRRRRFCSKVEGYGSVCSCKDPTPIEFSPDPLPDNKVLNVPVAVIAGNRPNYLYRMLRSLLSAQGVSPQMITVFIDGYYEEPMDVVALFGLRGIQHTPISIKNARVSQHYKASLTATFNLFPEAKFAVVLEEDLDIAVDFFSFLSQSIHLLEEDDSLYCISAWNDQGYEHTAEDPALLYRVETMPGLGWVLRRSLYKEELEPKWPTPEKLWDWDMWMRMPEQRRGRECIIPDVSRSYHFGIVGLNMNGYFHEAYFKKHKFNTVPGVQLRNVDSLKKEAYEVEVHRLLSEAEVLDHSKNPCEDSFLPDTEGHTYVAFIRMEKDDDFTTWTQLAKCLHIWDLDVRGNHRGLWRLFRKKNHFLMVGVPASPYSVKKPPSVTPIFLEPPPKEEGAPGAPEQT
UniProt O00232: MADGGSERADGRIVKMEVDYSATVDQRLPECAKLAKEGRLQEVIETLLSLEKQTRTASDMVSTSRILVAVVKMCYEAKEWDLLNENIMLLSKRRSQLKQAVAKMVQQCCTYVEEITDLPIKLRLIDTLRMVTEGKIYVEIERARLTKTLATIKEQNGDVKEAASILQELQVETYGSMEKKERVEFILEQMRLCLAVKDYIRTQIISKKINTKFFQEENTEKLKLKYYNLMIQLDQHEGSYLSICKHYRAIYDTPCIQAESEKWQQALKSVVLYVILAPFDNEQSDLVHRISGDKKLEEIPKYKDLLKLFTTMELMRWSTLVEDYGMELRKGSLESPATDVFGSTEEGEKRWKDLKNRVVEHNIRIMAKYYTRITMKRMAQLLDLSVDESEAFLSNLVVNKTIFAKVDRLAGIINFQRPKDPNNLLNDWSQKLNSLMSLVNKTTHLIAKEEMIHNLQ
UniProt Q13526: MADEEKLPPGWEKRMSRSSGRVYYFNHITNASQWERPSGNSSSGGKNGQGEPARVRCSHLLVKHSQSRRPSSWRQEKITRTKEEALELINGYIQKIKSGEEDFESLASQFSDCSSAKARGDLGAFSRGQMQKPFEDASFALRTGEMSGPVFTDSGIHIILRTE
UniProt P13612, residues 34-1032: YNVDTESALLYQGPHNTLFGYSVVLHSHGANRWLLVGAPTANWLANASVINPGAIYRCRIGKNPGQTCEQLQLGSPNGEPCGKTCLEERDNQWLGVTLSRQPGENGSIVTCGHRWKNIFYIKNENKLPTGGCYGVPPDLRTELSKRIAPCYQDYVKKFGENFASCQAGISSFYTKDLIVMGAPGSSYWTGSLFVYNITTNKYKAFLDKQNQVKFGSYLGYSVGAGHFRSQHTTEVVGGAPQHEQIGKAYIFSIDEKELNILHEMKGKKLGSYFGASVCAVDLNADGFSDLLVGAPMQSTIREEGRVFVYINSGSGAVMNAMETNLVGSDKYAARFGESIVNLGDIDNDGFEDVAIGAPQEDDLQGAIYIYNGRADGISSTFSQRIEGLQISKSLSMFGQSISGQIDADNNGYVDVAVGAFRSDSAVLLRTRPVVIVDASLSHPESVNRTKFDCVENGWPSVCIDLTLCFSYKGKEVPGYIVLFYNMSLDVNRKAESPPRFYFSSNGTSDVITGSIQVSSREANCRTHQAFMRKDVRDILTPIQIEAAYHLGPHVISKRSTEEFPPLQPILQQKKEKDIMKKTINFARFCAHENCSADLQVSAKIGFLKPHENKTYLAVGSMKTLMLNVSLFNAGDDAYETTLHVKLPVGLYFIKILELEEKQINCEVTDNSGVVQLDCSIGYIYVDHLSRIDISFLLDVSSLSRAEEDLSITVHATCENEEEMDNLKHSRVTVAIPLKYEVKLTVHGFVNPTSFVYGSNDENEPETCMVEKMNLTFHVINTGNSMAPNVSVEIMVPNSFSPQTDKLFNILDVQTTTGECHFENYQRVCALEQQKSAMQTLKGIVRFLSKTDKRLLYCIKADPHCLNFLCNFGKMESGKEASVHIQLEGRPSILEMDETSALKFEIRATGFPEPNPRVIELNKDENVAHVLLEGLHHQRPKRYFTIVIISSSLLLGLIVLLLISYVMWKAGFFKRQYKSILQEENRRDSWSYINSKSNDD

Sequences and labels used below:
B1: RBM42 (endogenous) (protein, UniProt Q9BTD8 1-480)
chain: MAGAGPAPGLPGAGGPVVPGPGAGIPGKSGEERLKEMEAEMALFEQEVLGAPVPGIPTAVPAVPTVPTVPTVEAMQVPAAPVIRPIIATNTYQQVQQTLEARAAAAATVVPPMVGGPPFVGPVGFGPGDRSHLDSPEAREAMFLRRAAVAPQRAPILRPAFVPHVLQRADSALSSAAAGPRPMALRPPHQALVGPPLPGPPGPPMMLPPMARAPGPPLGSMAALRPPLEEPAAPRELGLGLGLGLKEKEEAVVAAAAGLEEASAAVAVGAGGAPAGPAVIGPSLPLALAMPLPEPEPLPLPLEVVRGLLPPLRIPELLSLRPRPRPPRPEPPPGLMALEVPEPLGEDKKKGKPEKLKRCIRTAAGSSWEDPSLLEWDADDFRIFCGDLGNEVNDDILARAFSRFPSFLKAKVIRDKRTGKTKGYGFVSFKDPSDYVRAMREMNGKYVGSRPIKLRKSMWKDRNLDVVRKKQKEKKKLGLR
B2: RBM19 (endogenous) (protein, UniProt Q9Y4C8 1-960)
chain: MSRLIVKNLPNGMKEERFRQLFAAFGTLTDCSLKFTKDGKFRKFGFIGFKSEEEAQKAQKHFNKSFIDTSRITVEFCKSFGDPAKPRAWSKHAQKPSQPKQPPKDSTTPEIKKDEKKKKVAGQLEKLKEDTEFQEFLSVHQRRAQAATWANDGLDAEPSKGKSKPASDYLNFDSDSGQESEEEGAGEDLEEEASLEPKAAVQKELSDMDYLKSKMVKAGSSSSSEEEESEDEAVHCDEGSEAEEEDSSATPVLQERDSKGAGQEQGMPAGKKRPPEARAETEKPANQKEPTTCHTVKLRGAPFNVTEKNVMEFLAPLKPVAIRIVRNAHGNKTGYIFVDFSNEEEVKQALKCNREYMGGRYIEVFREKNVPTTKGAPKNTTKSWQGRILGENEEEEDLAESGRLFVRNLPYTSTEEDLEKLFSKYGPLSELHYPIDSLTKKPKGFAFITFMFPEHAVKAYSEVDGQVFQGRMLHVLPSTIKKEASEDASALGSSSYKKKKEAQDKANSASSHNWNTLFMGPNAVADAIAQKYNATKSQVFDHETKGSVAVRVALGETQLVQEVRRFLIDNGVSLDSFSQAAAERSKTVILVKNLPAGTLAAQLQETFGHFGSLGRVLLPEGGITAIVEFLEPLEARKAFRHLAYSKFHHVPLYLEWAPVGVFSSTAPQKKKLQDTPSEPMEKDPAEPETVPDGETPEDENPTEEGADNSSAKMEEEEEEEEEEEESLPGCTLFIKNLNFDTTEEKLKEVFSKVGTVKSCSISKKKNKAGVLLSMGFGFVEYRKPEQAQKALKQLQGHVVDGHKLEVRISERATKPAVTLARKKQVPRKQTTSKILVRNIPFQAHSREIRELFSTFGELKTVRLPKKMTGTGTHRGFGFVDFLTKQDAKRAFNALCHSTHLYGRRLVLEWADSEVTLQALRRKTAAHFHEPPKKKRSVVLDEILEQLEGSDSDSEEQTLQL
B3: E3 ubiquitin ligase RNF123 (protein, UniProt Q5XPI4 1-1314)
chain: MASKGAGMSFSRKSYRLTSDAEKSRVTGIVQEKLLNDYLNRIFSSSEHAPPAATSRKPLNFQNLPEHLDQLLQVDNEEEESQGQVEGRLGPSTVVLDHTGGFEGLLLVDDDLLGVIGHSNFGTIRSTTCVYKGKWLYEVLISSQGLMQIGWCTISCRFNQEEGVGDTHNSYAYDGNRVRKWNVTTTNYGKAWAAGDIVSCLIDLDDGTLSFCLNGVSLGTAFENLSRGLGMAYFPAISLSFKESVAFNFGSRPLRYPVAGYRPLQDPPSADLVRAQRLLGCFRAVLSVELDPVEGRLLDKESSKWRLRGQPTVLLTLAHIFHHFAPLLRKVYLVEAVLMSFLLGIVEKGTPTQAQSVVHQVLDLLWLFMEDYEVQDCLKQLMMSLLRLYRFSPIVPDLGLQIHYLRLTIAILRHEKSRKFLLSNVLFDVLRSVVFFYIKSPLRVEEAGLQELIPTTWWPHCSSREGKESTEMKEETAEERLRRRAYERGCQRLRKRIEVVEELQVQILKLLLDNKDDNGGEASRYIFLTKFRKFLQENASGRGNMPMLCPPEYMVCFLHRLISALRYYWDEYKASNPHASFSEEAYIPPQVFYNGKVDYFDLQRLGGLLSHLRKTLKDDLASKANIVIDPLELQSTAMDDLDEDEEPAPAMAQRPMQALAVGGPLPLPRPGWLSSPTLGRANRFLSTAAVSLMTPRRPLSTSEKVKVRTLSVEQRTREDIEGSHWNEGLLLGRPPEEPEQPLTENSLLEVLDGAVMMYNLSVHQQLGKMVGVSDDVNEYAMALRDTEDKLRRCPKRRKDILAELTKSQKVFSEKLDHLSRRLAWVHATVYSQEKMLDIYWLLRVCLRTIEHGDRTGSLFAFMPEFYLSVAINSYSALKNYFGPVHSMEELPGYEETLTRLAAILAKHFADARIVGTDIRDSLMQALASYVCYPHSLRAVERIPEEQRIAMVRNLLAPYEQRPWAQTNWILVRLWRGCGFGYRYTRLPHLLKTKLEDANLPSLQKPCPSTLLQQHMADLLQQGPDVAPSFLNSVLNQLNWAFSEFIGMIQEIQQAAERLERNFVDSRQLKVCATCFDLSVSLLRVLEMTITLVPEIFLDWTRPTSEMLLRRLAQLLNQVLNRVTAERNLFDRVVTLRLPGLESVDHYPILVAVTGILVQLLVRGPASEREQATSVLLADPCFQLRSICYLLGQPEPPAPGTALPAPDRKRFSLQSYADYISADELAQVEQMLAHLTSASAQAAAASLPTSEEDLCPICYAHPISAVFQPCGHKSCKACINQHLMNNKDCFFCKTTIVSVEDWEKGANTSTTSSAA
B4: RAVER1 (endogenous) (protein, UniProt Q8IY67 1-606)
chain: MAADVSVTHRPPLSPKSGAEVEAGDAAERRAPEEELPPLDPEEIRKRLEHTERQFRNRRKILIRGLPGDVTNQEVHDLLSDYELKYCFVDKYKGTAFVTLLNGEQAEAAINAFHQSRLRERELSVQLQPTDALLCVANLPPSLTQQQFEELVRPFGSLERCFLVYSERTGQSKGYGFAEYMKKDSAARAKSDLLGKPLGPRTLYVHWTDAGQLTPALLHSRCLCVDRLPPGFNDVDALCRALSAVHSPTFCQLACGQDGQLKGFAVLEYETAEMAEEAQQQADGLSLGGSHLRVSFCAPGPPGRSMLAALIAAQATALNRGKGLLPEPNILQLLNNLGPSASLQLLLNPLLHGSAGGKQGLLGAPPAMPLLNGPALSTALLQLALQTQGQKKPGILGDSPLGALQPGAQPANPLLGELPAGGGLPPELPPRRGKPPPLLPSVLGPAGGDREALGLGPPAAQLTPPPAPVGLRGSGLRGPLSHFYSGSPTSYFTSGLQAGLKQSHLSKAIGSSPLGSGEGLLGLSPGPNGHSHLLKVRAGGGDMQGWEAPAPQRPLTRPALPSVSRPHWAARNAALPTCCPRPSPAQKAAMWASTPRASAATTRTPT
B5: KNSTRN (endogenous) (protein, UniProt Q9Y448 1-316)
chain: MAAPEAPPLDRVFRTTWLSTECDSHPLPPSYRKFLFETQAADLAGGTTVAAGNLLNESEKDCGQDRRAPGVQPCRLVTMTSVVKTVYSLQPPSALSGGQPADTQTRATSKSLLPVRSKEVDVSKQLHSGGPENDVTKITKLRRENGQMKATDTATRRNVRKGYKPLSKQKSEEELKDKNQLLEAVNKQLHQKLTETQGELKDLTQKVELLEKFRDNCLAILESKGLDPALGSETLASRQESTTDHMDSMLLLETLQEELKLFNETAKKQMEELQALKVKLEMKEERVRFLEQQTLCNNQVNDLTTALKEMEQLLEM
B6: MNAT (protein, UniProt P51948 1-309)
chain: MDDQGCPRCKTTKYRNPSLKLMVNVCGHTLCESCVDLLFVRGAGNCPECGTPLRKSNFRVQLFEDPTVDKEVEIRKKVLKIYNKREEDFPSLREYNDFLEEVEEIVFNLTNNVDLDNTKKKMEIYQKENKDVIQKNKLKLTREQEELEEALEVERQENEQRRLFIQKEEQLQQILKRKNKQAFLDELESSDLPVALLLAQHKDRSTQLEMQLEKPKPVKPVTFSTGIKMGQHISLAPIHKLEEALYEYQPLQIETYGPHVPELEMLGRLGYLNHVRAASPQDLAGGYTSSLACHRALQDAFSGLFWQPS
B7: RFC1 (protein, UniProt P35251 1-1148)
chain: MDIRKFFGVIPSGKKLVSETVKKNEKTKSDEETLKAKKGIKEIKVNSSRKEDDFKQKQPSKKKRIIYDSDSESEETLQVKNAKKPPEKLPVSSKPGKISRQDPVTYISETDEEDDFMCKKAASKSKENGRSTNSHLGTSNMKKNEENTKTKNKPLSPIKLTPTSVLDYFGTGSVQRSNKKMVASKRKELSQNTDESGLNDEAIAKQLQLDEDAELERQLHEDEEFARTLAMLDEEPKTKKARKDTEAGETFSSVQANLSKAEKHKYPHKVKTAQVSDERKSYSPRKQSKYESSKESQQHSKSSADKIGEVSSPKASSKLAIMKRKEESSYKEIEPVASKRKENAIKLKGETKTPKKTKSSPAKKESVSPEDSEKKRTNYQAYRSYLNREGPKALGSKEIPKGAENCLEGLIFVITGVLESIERDEAKSLIERYGGKVTGNVSKKTNYLVMGRDSGQSKSDKAAALGTKIIDEDGLLNLIRTMPGKKSKYEIAVETEMKKESKLERTPQKNVQGKRKISPSKKESESKKSRPTSKRDSLAKTIKKETDVFWKSLDFKEQVAEETSGDSKARNLADDSSENKVENLLWVDKYKPTSLKTIIGQQGDQSCANKLLRWLRNWQKSSSEDKKHAAKFGKFSGKDDGSSFKAALLSGPPGVGKTTTASLVCQELGYSYVELNASDTRSKSSLKAIVAESLNNTSIKGFYSNGAASSVSTKHALIMDEVDGMAGNEDRGGIQELIGLIKHTKIPIICMCNDRNHPKIRSLVHYCFDLRFQRPRVEQIKGAMMSIAFKEGLKIPPPAMNEIILGANQDIRQVLHNLSMWCARSKALTYDQAKADSHRAKKDIKMGPFDVARKVFAAGEETAHMSLVDKSDLFFHDYSIAPLFVQENYIHVKPVAAGGDMKKHLMLLSRAADSICDGDLVDSQIRSKQNWSLLPAQAIYASVLPGELMRGYMTQFPTFPSWLGKHSSTGKHDRIVQDLALHMSLRTYSSKRTVNMDYLSLLRDALVQPLTSQGVDGVQDVVALMDTYYLMKEDFENIMEISSWGGKPSPFSKLDPKVKAAFTRAYNKEAHLTPYSLQAIKASRHSTSPSLDSEYNEELNEDDSQSDEKDQDAIETDAMIKKKTKSSKPSKPEKDKEPRKGKGKSSKK

No constants are given. Whether binding was seen depends on the method and setting. In cells and extracts the contact can be indirect. These calls come from enrichment with a bait or labelling near it, and not all partners need be listed.

The target in one assay is SARS-CoV-2 ORF9B with C-terminal Twin-Strep tag (SARS-CoV-2) (UniProt P0DTD2). Kind of assay: proximity labelling.
With “casein kinase CSNK2A1 (from UniProt P68400 1-391)”, the binding entry is reported as “binds”.
On the same count and under the same terms, the value for “DNA damage checkpoint kinase CHEK2 (from UniProt O96017 1-543)” was “binds”.
Same read-out and setting: the entry for “proteasomal subunit PSMD13 (from UniProt Q9UNM6 1-376)” is “binds”; for “glycosyltransferase POMGNT1 (from UniProt Q8WZA1 1-660)” it is “binds”; for “SQSTM1 (endogenous) (from UniProt Q13501 1-440)” it is “binds”.
On the same count and under the same terms, the value for “proteasomal subunit PSMD12 (from UniProt O00232 1-456)” was “binds”.
Turning to B1, the binding result is reported as “binds”.
Turning to B2, the binding result is reported as “binds”.
In the case of B3, the binding entry is given as “binds”.
On the same count and under the same terms, the entry for B4 is “binds”; for B5 it is “binds”.

For the next assay, the target named is endogenous PIN1 with a Twin-Strep tag inserted at the native locus (human (endogenous in HEK293T)) (UniProt Q13526). Kind of assay: proximity labelling; APPLE-MS on lysate of HEK293T knock-in cells with Twin-Strep-tagged endogenous PIN1; SA-PupE, PafA12KR, ATP; 8 M urea, biotin agarose, label-free MS.
For the molecule ITGA4 (from UniProt P13612 34-1032), the binding result is on record as “binds”.

The next assay shares this target. The description is as above. This is another data set of the same source.
Turning to B6, the binding entry is given as “binds”.
Same read-out and setting: the entry for B7 is “binds”.
